Reference: PubChem BioAssay AID485314 (National Center for Advancing Translational Sciences (NCATS), 2010)
Values joined by “and” are separate entries in the source; they are usually repeats but may differ in a detail not shown here. Equal entries are not always repeated. Out of some 340,000 compounds screened, about 4,500 (1.3%) were called active. Inconclusive results, whose numbers are uncertain, are shown with a selection of clear calls. The call rests on the fitted dose curve; in most records, active means well fitted inhibition curve with a large enough effect; inconclusive means small, poorly fitted or top-dose-only effect, or another doubt; inactive means no such curve, though single readings can be large or run the other way. Where the call is inconclusive, the potency comes from a doubtful curve fit.

molecular target: DNA polymerase beta (Homo sapiens) (UniProt P06746); assay: qHTS Assay for Inhibitors of DNA Polymerase Beta; details: Pol beta primer extension/strand displacement, fluorescence kinetic; activity change, negative = inhibition: at 114 µM (top of the series)
Summary of the method: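 Preincubation: enzyme (10 nM) with compound, 15 min, RT. Reaction: substrate added to 50 nM final. Reads: 0 and 10 min. Analysis: normalized, Hill fit.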
On the % scale 0 is the no-effect control and ±100 the full control effect; potency means the concentration at half of the fitted maximal effect.

| SMILES | Potency | activity change, negative = inhibition |
| --- | --- | --- |
| CC1CCN(C(=O)CSc2nnc3c(n2)[nH]c2ccccc23)CC1 | inconclusive: 10 µM [inhibitor, full curve, poor fit] |  |
| Cc1c(C)n(C(=O)CSc2nncn2C)c2ccccc12 | inconclusive: 89.1 µM [inhibitor, single point] |  |
| CCc1nn(CC(=O)N2CCN(C)CC2)c(=O)c2cccn12 | inconclusive: 100 µM [inhibitor, single point] |  |
| CCOC(=O)CN(C(=O)Cn1nnc(-c2ccc(OC)cc2)n1)C(C(=O)NC1CCCC1)c1ccc(F)cc1 (stereo not drawn) | inconclusive: 79.4 µM [inhibitor, single point] |  |
| COc1ccc(N2Cc3cccc(C(=O)Nc4ccc(F)cc4)c3C2=O)cc1 | active: 6.31 µM |  |
| CCc1nnc(NC(=O)c2cccnc2)s1 | inconclusive: 0.126 µM [inhibitor, full curve, poor fit] |  |
| CNC(=O)CSc1nnc(-c2ccco2)n1-c1ccccc1 | inconclusive: 89.1 µM [inhibitor, single point] |  |
| COc1cc([N+](=O)[O-])ccc1NC(=O)COC(=O)c1ccc(NC(N)=O)cc1 |  | inconclusive: -56.5% [inhibitor] |
| COc1ccc(CCNC(=O)C(=O)NCC(c2ccc3c(c2)OCO3)N2CCOCC2)cc1OC (stereo not drawn) | inactive |  |
| Cc1cccn2c(=O)c(C(=O)NCCc3ccccc3)c(O)nc12 | inactive |  |
| COc1ccccc1N1CCN(C(=O)CSc2nc3ccccc3nc2Cc2ccccc2)CC1 | inactive |  |
| COC(=O)c1c(NC(=O)c2cccs2)sc2c1CCC(C)C2 (stereo not drawn) | inconclusive: 22.4 µM [inhibitor, partial curve] |  |
| CNC(=O)c1c[nH]c2ccc(S(=O)(=O)Nc3cccc(Cl)c3C)cc2c1=O | active: 31.6 µM |  |
| CC(C)NC(=S)n1cc(C(=O)c2cc(Cl)cc(Cl)c2O)cn1 | inconclusive: 79.4 µM [inhibitor, single point] |  |
| COc1cc(SC#N)ccc1N=Cc1c(C)[nH]n(-c2ccc(C)cc2C)c1=O | inactive |  |
| O=C(NCC1(c2ccccc2)CCOCC1)c1cccs1 | inactive |  |
| CCCCn1c(-c2cc(Cl)ccc2OC)n[nH]c1=S | inactive |  |
| Cc1cc(NC(=O)c2ccccc2F)ncc1NC(=O)c1cccs1 | inconclusive: 50.1 µM [inhibitor, partial curve] |  |
| CC(=O)Nc1ccc(NC(=S)Nc2ccc(Br)cc2)cc1 | inactive |  |
| CCCC(=O)Nc1ccc(-c2nc3cc(C)c(C)cc3o2)cc1 |  | inconclusive: -36.5% [inhibitor] |
| Cn1c(CSCc2ccccc2Cl)nnc1SCC(=O)Nc1nccs1 | inconclusive: 89.1 µM [inhibitor, single point] |  |
| COC(=O)C(C)Sc1nc2c(c(=O)[nH]c(=O)n2C)n1CCCc1ccccc1 (stereo not drawn) | inconclusive: 0.708 µM [inhibitor, full curve, poor fit] |  |
| CC(C)(C)OC(=O)N1CCC(c2nnc(SCc3ccccc3)o2)CC1 | inactive |  |
| COc1ccccc1CNC(=O)c1ccc(N2Cc3cccc(OC)c3Oc3ncccc32)s1 | inconclusive: 2 µM [inhibitor, single point] |  |
| Cc1cccc(-c2noc(-c3ccc(N4CCN(C)CC4)c([N+](=O)[O-])c3)n2)c1 | inactive |  |

| SMILES | Potency | activity change, negative = inhibition |
| --- | --- | --- |
| Cn1c(=O)c2c(ncn2CC(=O)Nc2ccc(Cl)cc2Cl)n(C)c1=O | inconclusive: 1.58 µM [inhibitor, full curve, poor fit] |  |
| Cc1ccnc(NC(=O)c2sc3ccccc3c2Cl)c1 | inactive |  |
| CCOc1cccc(=O)c2c(C)n(Cc3ccco3)c(C)c12 | active: 25.1 µM |  |
| NNc1ccc(Cl)c(C(=O)O)c1 | inconclusive: 89.1 µM [inhibitor, single point] |  |
| Cc1ccc(-c2nn3c(C)nnc3s2)cc1NC(=O)c1ccc(-c2ccc(Cl)cc2Cl)o1 | active: 3.98 µM |  |
| NS(=O)(=O)c1ccc(NC(=O)COc2ccc(C(=O)c3ccc(F)cc3)cc2)cc1 |  | inconclusive: -87.9% [inhibitor] |
| CCCCCCCCc1nnc(NC(=O)c2ccco2)s1 | active: 35.5 µM |  |
| COc1ccc(-c2cc3c(=O)n(CC(=O)Nc4ccc(Cl)cc4)ncn3n2)cc1 | inactive |  |
| CCC1CN(C(=O)N2CCC(C(=O)NCc3ccccc3C)CC2)c2ccccc2O1 (stereo not drawn) | inconclusive: 0.316 µM [inhibitor, full curve, poor fit] |  |
| COc1cccc(C(=O)NN2CC(O)=C(c3nc4ccccc4s3)C2=N)c1 | inconclusive: 20 µM [inhibitor, full curve] |  |
| COc1ccc(/C=N/NC(=O)c2cccc(NC(C)=O)c2)c(OC)c1 | inconclusive: 63.1 µM [inhibitor, single point] |  |
| Cc1ccc(Cn2c(C)c(CNCCCc3ccccc3)c(C(=O)O)c2C)cc1 | inactive |  |
| Cc1cc(C=O)c(C)n1-c1cccc(C(=O)O)c1 | active: 14.1 µM |  |
| CC1CCN(S(=O)(=O)c2ccc3c(c2)CCC(=O)N3CC(=O)Nc2cccc(C#N)c2)CC1 | active: 50.1 µM |  |
| O=C(CCc1ccccc1)Nc1ccc(S(=O)(=O)N2CCCC2)cc1 | inactive |  |
| O=C1CC(c2ccc(O)c(O)c2)Oc2cc(O)cc(O)c21 (stereo not drawn) | inconclusive: 35.5 µM [inhibitor, full curve, poor fit] |  |
| COc1cc(C(F)(F)F)c(C(=O)NCc2cccc(Cl)c2)cn1 | inconclusive: 100 µM [inhibitor, single point] |  |
| Cc1ccc(NC(=O)C2CCN(S(=O)(=O)c3c(C)noc3/C=C/c3ccco3)CC2)cc1C | inconclusive: 14.1 µM [inhibitor, single point] |  |
| Cc1cc(C)cc(N(C(C)C(=O)NCc2ccc3c(c2)OCO3)S(C)(=O)=O)c1 (stereo not drawn) | inconclusive: 89.1 µM [inhibitor, single point] |  |
| Cc1ccc(S(=O)(=O)c2cn(C)c3cc(N4CCCC(C)C4)c(F)cc3c2=O)c(C)c1 (stereo not drawn) | inactive |  |
| OC[C@H]1O[C@@H](Oc2cc(O)cc(/C=C/c3ccc(O)cc3)c2)[C@H](O)[C@@H](O)[C@@H]1O | active: 20 µM |  |
| O=C(NCCOCCn1c(=O)oc2ccccc21)Nc1ccc(F)cc1 | inactive |  |
| COc1cc(/C=N/NC(=O)c2nc(-c3ccccc3)n(-c3ccccc3)n2)ccc1O | inactive |  |
| CCN1C(=O)/C(=C/C=C2\N(CC)c3cc(S(=O)(=O)N(C)C)ccc3N2c2ccccc2)SC1=S | active: 3.55 µM |  |
| O=C(Cc1ccc(Cl)cc1)Nc1cc(S(=O)(=O)N2CCOCC2)ccc1N1CCCC1 | inconclusive: 0.282 µM [inhibitor, full curve] |  |

| SMILES | Potency | activity change, negative = inhibition |
| --- | --- | --- |
| O=C(NCC1CCCO1)c1c[nH]c2ccc(S(=O)(=O)Nc3cccc(C(F)(F)F)c3)cc2c1=O (stereo not drawn) | inconclusive: 89.1 µM [inhibitor, single point] |  |
| COc1cc(OC)c(NC(=O)CN(C)S(=O)(=O)c2ccc3[nH]c(=O)oc3c2)cc1Cl | inconclusive: 50.1 µM [inhibitor, partial curve] |  |
| CCC(C(=O)NCCCN(CC)Cc1ccccc1)n1nc(C)c2sc3ccccc3c2c1=O (stereo not drawn) | inactive |  |
| Cc1ccc(NC(=O)CS(=O)CC(=O)Nc2cnc3ccccc3c2)cc1Cl (stereo not drawn) | inconclusive: 39.8 µM [inhibitor, partial curve] |  |
| CCCNC(=O)c1ccccc1C(=O)NC1(C(=O)NCCC)CCCC1 | inconclusive: 0.631 µM [inhibitor, full curve, poor fit] |  |
| O=C(c1ccc(S(=O)(=O)N2CCOCC2)cc1)N1CCN(c2ccccc2F)CC1 | inconclusive: 35.5 µM [inhibitor, single point] |  |
| Cc1ccc(/C([O-])=C(/C(=S)NCc2ccco2)[n+]2ccccc2)cc1[N+](=O)[O-] | inconclusive: 25.1 µM [inhibitor, partial curve, poor fit] |  |
| Cc1ccc(C)c(CS(=O)(=O)c2cn(CC(=O)N(C(C)C)C(C)C)c3ccccc23)c1 | inactive |  |
| O=C(N/N=C/c1ccc2ccccc2c1)c1ccc(COc2ccc3c(c2)CCC3)o1 | active: 35.5 µM |  |
| C=CCn1c(-c2ccccc2[N+](=O)[O-])n[nH]c1=S | inactive |  |
| CC(C)(C)OC(=O)NCCCCCNC(=O)c1[nH]cnc1C(=O)N[C@@H](CCCCNC(=O)OC(C)(C)C)C(=O)OC(C)(C)C | inconclusive: 56.2 µM [inhibitor, partial curve] |  |
| COc1ccc(S(=O)(=O)Cc2ccc(C(=O)N3CCc4ccccc4C3)o2)cc1 | inactive |  |
| O=c1c(O)c(-c2ccc(O)cc2O)oc2cc(O)cc(O)c12 | active: 562 nM and active: 4.47 µM |  |
| COc1ccccc1/C=C/C=C1N=C(/C=C/c2ccc(Cl)cc2)OC/1=O | inconclusive: 44.7 µM [inhibitor, partial curve] |  |
| Cc1cc[n+](-c2[nH]c(=O)sc2/C=N/N=C(\[O-])c2ccccc2)cc1 | active: 14.1 µM |  |
| N#Cc1c(-c2ccco2)cc(-c2ccc(F)cc2)nc1N | inactive |  |
| Cc1ccccc1OCC(=O)Nc1ccc(C(=O)OCc2cc(=O)n3ccsc3n2)cc1 | inconclusive: 63.1 µM [inhibitor, single point] |  |
| COC(=O)c1cc2sccc2n1CC(=O)Nc1ccc(C)cc1C | inactive |  |
| COc1cc(/C=C2/C(=O)NN(c3ccc(Cl)c(Cl)c3)C2=O)cc([N+](=O)[O-])c1O | active: 20 µM |  |
| Cc1ccc(NC(=O)Cn2nnc(C(=O)NCCc3ccccc3)c2N)cc1 | active: 15.8 µM |  |
| CCOc1ccc(OCC)c(NC(=O)CSc2nnnn2CC)c1 | inconclusive: 79.4 µM [inhibitor, single point] |  |
| O=C(O)C(Oc1ccc2cc(-c3ccc(Cl)cc3)c(=O)oc2c1)c1ccccc1 (stereo not drawn) | inconclusive: 0.631 µM [inhibitor, full curve, poor fit] |  |

2 compounds picked at random from the list so far, as already listed:

| SMILES | Potency | activity change, negative = inhibition |
| --- | --- | --- |
| Cn1c(=O)c2c(ncn2CC(=O)Nc2ccc(Cl)cc2Cl)n(C)c1=O | inconclusive: 1.58 µM [inhibitor, full curve, poor fit] |  |
| CCC1CN(C(=O)N2CCC(C(=O)NCc3ccccc3C)CC2)c2ccccc2O1 (stereo not drawn) | inconclusive: 0.316 µM [inhibitor, full curve, poor fit] |  |
